From patent US20230088528A1, “USE OF LIPID IN PREPARATION OF NUCLEIC ACID DELIVERY REAGENT AND RELATED PRODUCT THEREOF” (INSTITUTE OF BASIC MEDICAL SCIENCES CHINESE ACADEMY OF …, priority 2019, published 2023)
At least one structure is not confirmed: it was looked up by name or label, or the drawing left a doubt.

Experiment: In vivo delivery of lipid-nucleic acid mixture (PGY-sRNA-26) by gavage, relative intake in blood and tissues by RT-qPCR
Set-up: species or system C57BL/6 male mice
Settings: 100 μg lipid:1 nmol PGY-sRNA-26 per mouse, 12 hrs after gavage, vs free intake group
Description: The concentration of a lipid solution in chloroform was 10 mg/ml (stock solution), and grouping was performed according to the lipid compound number.
1 nmol of small RNA (as shown in Table 2) was dissolved in 400 μl of DEPC-treated water in a glass tube, and 10 μl of a corresponding lipid stock solution was added, to give a system containing 100 μg of lipid. The system was well mixed, heated for 15 min in a water bath at 90° C., and then naturally cooled, to obtain a lipid-nucleic acid mixture of the lipid and small RNA.
The C57BL/6 male mice used in the experiment were purchased from Beijing Vital River Laboratory Animal Technology Co., Ltd., about 6 weeks old, and weighed 20-24 g. […]
The sample was centrifuged at 4° C., and 12,000 rpm, for 10 min, the supernatant was discarded, and the sample was air dried at room temperature. The RNA sample was dissolved in 50-100 μL of RNase-free H2O, and the RNA concentration was quantified by determining the OD value.
The sRNA was reversely transcribed into cDNA using a reverse transcription kit (High-Capacity cDNA Reverse Transcription Kits, Applied Biosystems, cat. no. 4368813), following the stem-loop method (see, for example Real-time quantification of microRNAs by stem-loop RT-PCR, Nucleic Acids Res. 2005 Nov. 27; 33(20):e179, incorporated herein by reference). […]

## CC/C=C\CC(=O)OCC(O)COP(=O)(O)OCCN (stereo not shown) [Lipid 115, 1-heptadecenoyl-sn-glycero-3-phosphoethanolamine]
  oral delivery of sRNA single-chain nucleic acid into the blood, and lung, kidney, spleen, heart, and intestinal tissue of mice: can effectively orally deliver
